# ChEMBL document CHEMBL4354838, “Synthesis and in Vitro and in Vivo Biological Evaluation of Tissue-Specific Bisthiazole Histone Deacetylase (HDAC) Inhibitors” (J Med Chem, 2020)
# The chains behind the UniProt entries cited, without tags or fusion partners.
# UniProt Q13547, whole entry: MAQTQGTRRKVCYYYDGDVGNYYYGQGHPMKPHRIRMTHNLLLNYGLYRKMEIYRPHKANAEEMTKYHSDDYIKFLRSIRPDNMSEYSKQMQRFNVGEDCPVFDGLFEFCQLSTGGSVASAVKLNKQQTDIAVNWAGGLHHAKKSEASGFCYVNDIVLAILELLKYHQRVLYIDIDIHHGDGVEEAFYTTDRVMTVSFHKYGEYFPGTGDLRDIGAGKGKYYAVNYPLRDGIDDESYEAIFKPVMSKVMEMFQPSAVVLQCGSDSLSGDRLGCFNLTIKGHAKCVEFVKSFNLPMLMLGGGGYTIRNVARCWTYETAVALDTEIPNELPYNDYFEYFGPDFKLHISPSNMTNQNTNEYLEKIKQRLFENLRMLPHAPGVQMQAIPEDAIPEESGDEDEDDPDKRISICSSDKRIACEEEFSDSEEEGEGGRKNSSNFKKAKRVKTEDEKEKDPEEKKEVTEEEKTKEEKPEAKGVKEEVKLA
# Target: Histone deacetylase 1 (Homo sapiens, UniProt Q13547)
# Experiment: biochemical
# Assay type: cell-based
structure (smiles),measurement,value
O=C(NO)c1ccc(CNC(=O)c2nc(-c3nccs3)sc2C2CC2)cc1,IC50,0.0237 µM
